Laboratory results from US20230055705A1, “SUBSTITUTED THIOPHENE CARBOXAMIDES AND DERIVATIVES THEREOF” (Bayer Aktiengesellschaft, priority 2019, published 2023).
Some entries share one result that the patent states for a list of compounds.

Experiments:
[1] = system: salicylate responsive promoter sequence of the PR1 (pathogenesis-related protein I) gene (AT2G14610); assay: Induction of defense gene expression in Arabidopsis thaliana (PR1 promoter-GFP reporter plants); assay type: in vivo; details: 3rd day after spraying, mock treated leaves set as 1.00
Method: Arabidopsis thaliana reporter plants containing the coding sequence of a green fluorescent protein (GFP) linked to the salicylate responsive promoter sequence of the PR1 (pathogenesis-related protein I) gene (AT2G14610) were grown for five days and then sprayed with compounds. On the 3rd day after spraying, plant fluorescence was assessed with a MacroFluo instrument from Leica Microsystems (Wetzlar, Germany). Fluorescences were quantified with the Meta-Morph Microscopy Automation & Image Analysis Software (Molecular Devices, Sunnyvale, Calif., United States). Background fluorescence in mock treated leaves was set as 1.00.

[2] = system: Pseudomonas syringae pv. tomato; assay: Pseudomonas syringae pv. tomato in vitro cell test; assay type: cell-based; details: 20 ppm of active ingredient; 24 h incubation
Method: Culture medium: LB broth medium (Luria Broth Miller) Sigma
Inoculum: bacteria suspension
Compounds were solubilized in DMSO and the solution used to prepare the required range of concentrations. The final concentration of DMSO used in the assay was 1%.
(§1) Inoculum was prepared from a pre-culture of bacteria grown in liquid medium and diluted to the desired optical density (OD).
(§2) Compounds were evaluated for their ability to inhibit bacteria growth in liquid culture assay. The compounds were added in the desired concentrations to culture medium containing the bacteria suspension. After 24 h of incubation, the efficacy of compounds was determined by spectrometric measurement of bacteria growth. Inhibition was determined by comparing the absorbance values in wells containing the compounds with the absorbance in control wells without active ingredients.

[3] = system: Xanthomonas campestris pv. campestris; assay: Xanthomonas campestris pv. campestris in vitro cell test; assay type: cell-based; details: 20 ppm of active ingredient; 24 h incubation
Method: • Solvent: DMSO • Culture medium: LB broth medium (Luria Broth Miller) Sigma • Inoculum: bacteria suspension
Compounds were solubilized in DMSO and the solution used to prepare the required range of concentrations. The final concentration of DMSO used in the assay was ≤1%.
as §1, §2

[4] = system: Alternaria alternata; assay: Alternaria alternata in vitro cell test; assay type: cell-based; details: 20 ppm of active ingredient; 5 days incubation
Method: • Solvent: DMSO • Culture medium: 14.6 g anhydrous D-glucose (VWR), 7.1 g Mycological Peptone (Oxoid), 1.4 g granulated Yeast Extract (Merck), QSP 1 liter • Inoculum: spores suspension
Fungicides were solubilized in DMSO and the solution used to prepare the required range of concentrations. The final concentration of DMSO used in the assay was ≤[…]1%.
A spore suspension of A. alternata was prepared and diluted to the desired spore density.
Fungicides were evaluated for their ability to inhibit spore germination and mycelium growth in liquid culture assay. The compounds were added in the desired concentration to the culture medium with spores. After 5 days incubation, fungi-toxicity of compounds was determined by spectrometric measurement of mycelium growth. Inhibition of fungal growth was determined by comparing the absorbance values in wells containing the fungicides with the absorbance in control wells without fungicides.

Row | SMILES | relative fluorescence value ([1]; 75 ppm of compound) | efficacy (inhibition of bacteria growth) [2] [%] | efficacy (inhibition of bacteria growth) [3] [%] | efficacy (inhibition of fungal growth) [4] [%] | relative fluorescence value ([1]; 300 ppm)
1 | N#CC1(NC(=O)c2sc(Cl)c(Cl)c2Cl)CCC(c2ccccc2)CC1 (stereo not shown) [I.131] | above 2 |  |  |  | 
2 | CCOC(=O)CN(O)C(=O)c1sc(Cl)c(Cl)c1Cl [I.146] |  | ≤ 30 | ≤ 30 |  | 
3 | N#CC(NC(=O)c1sc(Cl)c(Cl)c1Cl)c1ccccc1 (stereo not shown) [I.034] |  | ≤ 30 | ≤ 30 | ≤ 30 | above 2
4 | COC(=O)C(NC(=S)c1sc(Cl)c(Cl)c1Cl)C(C)C (stereo not shown) [I.093] | above 2 |  |  |  | above 2
5 | COC(=O)C1(NC(=O)c2sc(Cl)c(Cl)c2Cl)CCOC1 (stereo not shown) [I.076] | above 2 | ≤ 30 | ≤ 30 | ≤ 30 | above 2
6 | CCOC(=O)C1(NC(=O)c2sc(Cl)c(Cl)c2Cl)CCOCC1 [I.077] |  | ≤ 30 | ≤ 30 | ≤ 30 | 
7 | O=C(N[C@H]1CCCNC1=O)c1sc(Cl)c(Cl)c1Cl [I.126] |  | ≤ 30 | ≤ 30 | ≤ 30 | above 2
8 | CCOC(=O)C(NC(=S)c1sc(Cl)c(Cl)c1Cl)C(C)C (stereo not shown) [I.092] | above 2 |  |  |  | above 2
9 | COC(=O)C(CCSC(C)=O)NC(=O)c1sc(Cl)c(Cl)c1Cl (stereo not shown) [I.127] | above 2 | ≤ 30 | ≤ 30 | ≤ 30 | above 2
10 | CCOC(=O)C1(NC(=S)c2sc(Cl)c(Cl)c2Cl)CC1 [I.037] | above 2 |  | ≤ 30 |  | above 2
11 | O=C(NC1CCCNC1=O)c1sc(Cl)c(Cl)c1Cl (stereo not shown) [I.031] |  | ≤ 30 | ≤ 30 | ≤ 30 | above 2
12 | CC(C)C(C#N)NC(=O)c1sc(Cl)c(Cl)c1Cl (stereo not shown) [I.130] |  | ≤ 30 | ≤ 30 | ≤ 30 | above 2
13 | CCOC(=O)C(NC(=O)c1sc(Cl)c(Cl)c1Cl)OC (stereo not shown) [I.017] | above 2 |  |  |  | above 2
14 | CCOC(=O)[C@H](C)NC(=S)c1sc(Cl)c(Cl)c1Cl [I.118] | above 2 |  |  |  | above 2
15 | COC(=O)C1(NC(=O)c2sc(Cl)c(Cl)c2Cl)CCOCC1 [I.071] |  | ≤ 30 | ≤ 30 | ≤ 30 | 
16 | O=C(CNC(=O)c1sc(Cl)c(Cl)c1Cl)Sc1ccccc1 [I.042] | above 2 | ≤ 30 | ≤ 30 |  | above 2
17 | O=C1SCCC1NC(=S)c1sc(Cl)c(Cl)c1Cl (stereo not shown) [I.019] | above 2 | ≤ 30 | ≤ 30 |  | above 2
18 | CC(C)(C)OC(=O)C1(NC(=O)c2sc(Cl)c(Cl)c2Cl)CCC1 [I.097] |  |  |  |  | above 2
19 | CCOC(=O)C1(NC(=O)c2sc(Cl)c(Cl)c2Cl)COC1 [I.079] |  | ≤ 30 | ≤ 30 | ≤ 30 | 
20 | COC(=O)C1(NC(=O)c2sc(Cl)c(Cl)c2Cl)CCC(F)(F)CC1 [I.072] |  | ≤ 30 | ≤ 30 | ≤ 30 | above 2
21 | N#CNC(=O)CNC(=O)c1sc(Cl)c(Cl)c1Cl [I.106] | above 2 |  |  |  | above 2
22 | CCOC(=O)C1(CNC(=O)c2sc(Cl)c(Cl)c2Cl)CC1 [I.045] |  | ≤ 30 |  |  | above 2

Row | SMILES | relative fluorescence value ([1]; 75 ppm of compound) | efficacy (inhibition of bacteria growth) [2] [%] | efficacy (inhibition of bacteria growth) [3] [%] | efficacy (inhibition of fungal growth) [4] [%] | relative fluorescence value ([1]; 300 ppm)
23 | O=C(N[C@H]1CCSC1=O)c1sc(Cl)c(Cl)c1Cl [I.043] | above 2 | ≤ 30 | ≤ 30 |  | above 2
24 | N#CC1(NC(=O)c2sc(Cl)c(Cl)c2Cl)CCSCC1 [I.133] |  |  |  |  | above 2
25 | COC(=O)C1(NC(=O)c2sc(Cl)c(Cl)c2Cl)CCC1 [I.112] | above 2 | ≤ 30 | ≤ 30 | ≤ 30 | above 2
26 | NC(=S)C1(NC(=O)c2sc(Cl)c(Cl)c2Cl)CC1 [I.105] |  |  |  |  | above 2
27 | O=C(NC1CCOC1=O)c1sc(Cl)c(Cl)c1Cl (stereo not shown) [I.029] | above 2 | ≤ 30 | ≤ 30 |  | above 2
28 | CCCCOC(=O)C1(NC(=O)c2sc(Cl)c(Cl)c2Cl)CCC1 [I.099] | above 2 |  |  |  | above 2
29 | N#CC1(NC(=O)c2sc(Cl)c(Cl)c2Cl)CCC1 [I.033] |  | ≤ 30 | ≤ 30 | ≤ 30 | 
30 | CCSC(=O)CNC(=O)c1sc(Cl)c(Cl)c1Cl [I.036] | above 2 | ≤ 30 | ≤ 30 |  | above 2
31 | O=C(NC1(C(=O)OCc2ccccc2)CCC1)c1sc(Cl)c(Cl)c1Cl [I.100] | above 2 |  |  |  | above 2
32 | CCSC(=O)C(NC(=O)c1sc(Cl)c(Cl)c1Cl)C(C)C (stereo not shown) [I.040] | above 2 | ≤ 30 | ≤ 30 | ≤ 30 | above 2
33 | O=C(NC1(C(=O)OC2CCC2)CCC1)c1sc(Cl)c(Cl)c1Cl [I.102] | above 2 |  |  |  | above 2
34 | COC(=O)C1(NC(=O)c2sc(Cl)c(Cl)c2Cl)CSC1 [I.080] | above 2 | ≤ 30 | ≤ 30 | ≤ 30 | above 2
35 | COC(=O)C(C1CC1)N(O)C(=O)c1sc(Cl)c(Cl)c1Cl (stereo not shown) [I.021] | above 2 | ≤ 30 | ≤ 30 |  | above 2
36 | CCCOC(=O)C1(NC(=O)c2sc(Cl)c(Cl)c2Cl)CCC1 [I.101] | above 2 |  |  |  | above 2
37 | O=C(NC1(C(=O)OC2CCCCC2)CCC1)c1sc(Cl)c(Cl)c1Cl [I.103] | above 2 |  |  |  | above 2
38 | N#CC1(NC(=O)c2sc(Cl)c(Cl)c2Cl)CC1 [I.032] |  | ≤ 30 | ≤ 30 | ≤ 30 | above 2
39 | N#CNC(=O)C1(NC(=O)c2sc(Cl)c(Cl)c2Cl)CC1 [I.107] | above 2 |  |  |  | above 2
40 | COC(=O)C1(NC(=S)c2sc(Cl)c(Cl)c2Cl)CC1 [I.020] |  | ≤ 30 | ≤ 30 |  | 
41 | CCOC(=O)C1(NC(=O)c2sc(Cl)c(Cl)c2Cl)CCCC1 [I.070] |  | ≤ 30 | ≤ 30 | ≤ 30 | 
42 | CN(C)C(=O)CNC(=O)c1sc(Cl)c(Cl)c1Cl [I.065] |  | ≤ 30 | ≤ 30 |  | above 2
43 | CCOC(=O)CN(C(=O)c1sc(Cl)c(Cl)c1Cl)C1CC1 [I.116] |  |  |  |  | above 2
